{"sequences": {"note": "Protein sequences, listed by entry. Tags and fused reporters are not part of them. Lines headed by an entry give the natural chain unless they say otherwise; changes in a name come on top.", "UniProt Q8N488": "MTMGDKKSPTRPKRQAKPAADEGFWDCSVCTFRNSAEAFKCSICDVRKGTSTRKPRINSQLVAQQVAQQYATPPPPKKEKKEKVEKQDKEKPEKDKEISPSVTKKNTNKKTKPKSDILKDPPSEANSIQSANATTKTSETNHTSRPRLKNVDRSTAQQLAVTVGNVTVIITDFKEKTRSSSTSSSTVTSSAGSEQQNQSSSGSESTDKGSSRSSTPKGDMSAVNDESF", "UniProt Q8NI60": "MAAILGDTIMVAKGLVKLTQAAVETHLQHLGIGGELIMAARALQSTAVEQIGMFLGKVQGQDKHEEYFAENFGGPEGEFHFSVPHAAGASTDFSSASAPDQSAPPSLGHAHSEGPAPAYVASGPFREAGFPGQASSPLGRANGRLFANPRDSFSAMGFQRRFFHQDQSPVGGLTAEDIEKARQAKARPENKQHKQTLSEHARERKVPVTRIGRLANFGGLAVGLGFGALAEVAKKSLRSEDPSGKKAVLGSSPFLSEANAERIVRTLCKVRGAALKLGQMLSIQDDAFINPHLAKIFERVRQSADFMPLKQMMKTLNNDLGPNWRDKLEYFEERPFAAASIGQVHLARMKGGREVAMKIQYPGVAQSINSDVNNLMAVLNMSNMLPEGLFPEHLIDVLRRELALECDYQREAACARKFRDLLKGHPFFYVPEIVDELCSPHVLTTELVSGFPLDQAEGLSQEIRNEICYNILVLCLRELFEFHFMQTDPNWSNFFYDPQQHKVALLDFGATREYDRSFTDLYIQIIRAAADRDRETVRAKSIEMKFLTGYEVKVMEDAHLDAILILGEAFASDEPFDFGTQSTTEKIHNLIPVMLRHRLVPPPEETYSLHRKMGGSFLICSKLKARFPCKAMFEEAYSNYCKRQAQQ", "UniProt Q8NCA9": "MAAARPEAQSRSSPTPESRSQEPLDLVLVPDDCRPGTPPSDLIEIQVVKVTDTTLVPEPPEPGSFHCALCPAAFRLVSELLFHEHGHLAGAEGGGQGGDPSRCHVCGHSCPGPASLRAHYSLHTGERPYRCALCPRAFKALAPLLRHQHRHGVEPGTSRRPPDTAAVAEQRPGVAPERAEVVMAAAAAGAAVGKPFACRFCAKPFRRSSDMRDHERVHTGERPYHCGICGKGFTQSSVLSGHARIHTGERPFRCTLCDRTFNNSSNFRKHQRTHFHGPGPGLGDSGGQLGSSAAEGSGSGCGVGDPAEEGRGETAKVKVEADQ", "UniProt Q8NHY6": "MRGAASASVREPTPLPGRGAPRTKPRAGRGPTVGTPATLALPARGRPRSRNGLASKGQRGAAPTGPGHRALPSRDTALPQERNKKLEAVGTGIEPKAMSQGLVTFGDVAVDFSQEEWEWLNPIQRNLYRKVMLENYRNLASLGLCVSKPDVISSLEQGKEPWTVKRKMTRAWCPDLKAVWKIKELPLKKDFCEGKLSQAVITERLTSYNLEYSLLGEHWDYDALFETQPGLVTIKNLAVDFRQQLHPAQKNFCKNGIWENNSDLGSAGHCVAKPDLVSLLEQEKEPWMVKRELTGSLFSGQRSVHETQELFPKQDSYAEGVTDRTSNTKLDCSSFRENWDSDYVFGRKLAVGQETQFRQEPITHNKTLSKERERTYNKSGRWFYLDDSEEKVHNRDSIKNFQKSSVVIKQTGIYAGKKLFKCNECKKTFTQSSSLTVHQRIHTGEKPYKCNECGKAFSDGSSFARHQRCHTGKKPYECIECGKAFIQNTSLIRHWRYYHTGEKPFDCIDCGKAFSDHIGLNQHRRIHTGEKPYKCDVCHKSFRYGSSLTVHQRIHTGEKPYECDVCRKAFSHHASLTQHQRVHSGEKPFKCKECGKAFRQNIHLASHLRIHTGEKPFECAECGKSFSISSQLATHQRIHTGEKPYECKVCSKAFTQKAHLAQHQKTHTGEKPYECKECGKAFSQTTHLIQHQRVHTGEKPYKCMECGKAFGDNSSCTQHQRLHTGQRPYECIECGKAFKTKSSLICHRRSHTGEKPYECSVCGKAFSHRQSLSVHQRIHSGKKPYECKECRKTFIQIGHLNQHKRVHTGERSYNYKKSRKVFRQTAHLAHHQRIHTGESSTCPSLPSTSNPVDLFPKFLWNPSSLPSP", "UniProt Q8TA86": "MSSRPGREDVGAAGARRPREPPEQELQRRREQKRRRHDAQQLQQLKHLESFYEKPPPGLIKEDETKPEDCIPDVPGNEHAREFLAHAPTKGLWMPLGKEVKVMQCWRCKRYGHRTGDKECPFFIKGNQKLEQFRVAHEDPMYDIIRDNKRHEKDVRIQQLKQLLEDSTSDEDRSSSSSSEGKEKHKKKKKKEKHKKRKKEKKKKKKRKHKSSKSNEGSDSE", "UniProt Q8NEY1": "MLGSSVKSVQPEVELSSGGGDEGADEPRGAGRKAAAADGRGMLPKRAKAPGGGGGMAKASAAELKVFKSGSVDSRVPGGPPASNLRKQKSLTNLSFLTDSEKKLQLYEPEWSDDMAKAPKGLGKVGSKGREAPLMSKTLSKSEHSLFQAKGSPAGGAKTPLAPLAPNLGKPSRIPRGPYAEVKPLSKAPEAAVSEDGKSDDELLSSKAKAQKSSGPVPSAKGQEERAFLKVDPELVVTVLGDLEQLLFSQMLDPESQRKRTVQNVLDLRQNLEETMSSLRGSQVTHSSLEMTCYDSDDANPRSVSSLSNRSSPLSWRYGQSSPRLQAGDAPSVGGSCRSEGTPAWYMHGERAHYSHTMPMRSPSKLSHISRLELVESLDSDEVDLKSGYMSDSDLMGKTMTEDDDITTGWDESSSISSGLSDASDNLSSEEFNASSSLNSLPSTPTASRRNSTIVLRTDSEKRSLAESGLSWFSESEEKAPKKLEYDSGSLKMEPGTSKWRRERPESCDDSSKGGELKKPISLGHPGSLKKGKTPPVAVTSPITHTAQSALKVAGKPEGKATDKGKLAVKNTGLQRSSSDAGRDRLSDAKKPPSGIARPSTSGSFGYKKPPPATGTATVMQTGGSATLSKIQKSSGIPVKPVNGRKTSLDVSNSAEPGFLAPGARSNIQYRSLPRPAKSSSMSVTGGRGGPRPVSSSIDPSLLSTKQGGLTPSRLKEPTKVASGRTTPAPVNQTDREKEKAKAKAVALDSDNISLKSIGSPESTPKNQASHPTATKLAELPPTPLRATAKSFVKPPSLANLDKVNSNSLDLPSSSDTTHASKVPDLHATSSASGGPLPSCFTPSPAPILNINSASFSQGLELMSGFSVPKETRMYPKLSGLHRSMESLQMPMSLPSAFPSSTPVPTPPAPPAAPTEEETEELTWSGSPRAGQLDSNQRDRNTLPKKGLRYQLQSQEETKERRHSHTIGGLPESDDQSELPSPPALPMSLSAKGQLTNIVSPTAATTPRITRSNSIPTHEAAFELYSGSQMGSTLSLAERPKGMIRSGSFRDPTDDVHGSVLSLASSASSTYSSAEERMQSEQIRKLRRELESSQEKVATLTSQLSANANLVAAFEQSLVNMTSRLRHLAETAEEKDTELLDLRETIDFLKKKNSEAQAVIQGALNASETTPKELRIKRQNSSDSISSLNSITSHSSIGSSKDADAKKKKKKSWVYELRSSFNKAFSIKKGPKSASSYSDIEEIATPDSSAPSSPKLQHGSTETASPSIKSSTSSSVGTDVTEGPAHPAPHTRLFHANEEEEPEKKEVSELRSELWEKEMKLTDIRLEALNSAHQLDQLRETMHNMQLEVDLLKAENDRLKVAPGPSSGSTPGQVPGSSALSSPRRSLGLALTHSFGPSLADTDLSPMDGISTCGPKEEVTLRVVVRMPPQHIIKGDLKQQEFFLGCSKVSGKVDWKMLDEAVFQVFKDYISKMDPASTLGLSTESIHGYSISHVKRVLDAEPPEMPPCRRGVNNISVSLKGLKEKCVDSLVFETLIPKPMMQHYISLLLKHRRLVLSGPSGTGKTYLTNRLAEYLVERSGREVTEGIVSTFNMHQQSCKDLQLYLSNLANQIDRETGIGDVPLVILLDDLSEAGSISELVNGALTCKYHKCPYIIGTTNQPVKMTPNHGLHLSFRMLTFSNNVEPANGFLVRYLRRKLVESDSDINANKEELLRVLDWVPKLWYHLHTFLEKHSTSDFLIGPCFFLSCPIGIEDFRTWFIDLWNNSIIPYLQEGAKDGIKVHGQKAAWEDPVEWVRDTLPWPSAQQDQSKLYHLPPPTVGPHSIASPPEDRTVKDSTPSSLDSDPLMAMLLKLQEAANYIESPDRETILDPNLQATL", "UniProt Q8N635": "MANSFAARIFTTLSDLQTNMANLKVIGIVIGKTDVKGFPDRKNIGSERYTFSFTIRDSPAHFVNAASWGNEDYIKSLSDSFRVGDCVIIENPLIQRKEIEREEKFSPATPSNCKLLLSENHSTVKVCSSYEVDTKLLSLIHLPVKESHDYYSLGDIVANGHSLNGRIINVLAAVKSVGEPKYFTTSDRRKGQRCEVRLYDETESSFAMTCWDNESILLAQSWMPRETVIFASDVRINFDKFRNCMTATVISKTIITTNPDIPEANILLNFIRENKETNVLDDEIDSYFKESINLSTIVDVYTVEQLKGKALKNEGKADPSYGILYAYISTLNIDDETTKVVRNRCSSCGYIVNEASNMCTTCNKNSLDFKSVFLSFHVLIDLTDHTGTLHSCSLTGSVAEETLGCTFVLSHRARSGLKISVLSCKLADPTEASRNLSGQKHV", "UniProt Q8TAE6": "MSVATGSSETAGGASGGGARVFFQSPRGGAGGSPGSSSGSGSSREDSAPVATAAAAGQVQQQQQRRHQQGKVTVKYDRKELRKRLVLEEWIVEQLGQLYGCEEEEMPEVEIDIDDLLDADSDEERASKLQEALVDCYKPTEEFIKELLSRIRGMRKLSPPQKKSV", "UniProt Q8N9B4": "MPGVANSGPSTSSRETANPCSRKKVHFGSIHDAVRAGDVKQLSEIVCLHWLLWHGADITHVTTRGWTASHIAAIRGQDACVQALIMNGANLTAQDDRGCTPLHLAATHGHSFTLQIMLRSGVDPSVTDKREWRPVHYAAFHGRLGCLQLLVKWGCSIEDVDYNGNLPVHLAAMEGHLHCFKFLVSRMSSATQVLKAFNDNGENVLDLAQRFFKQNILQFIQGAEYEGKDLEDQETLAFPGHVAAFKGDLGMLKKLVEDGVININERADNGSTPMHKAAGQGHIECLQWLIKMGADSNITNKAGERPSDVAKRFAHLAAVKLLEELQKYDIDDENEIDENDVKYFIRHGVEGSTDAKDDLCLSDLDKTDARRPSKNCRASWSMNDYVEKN", "UniProt Q8NDC0": "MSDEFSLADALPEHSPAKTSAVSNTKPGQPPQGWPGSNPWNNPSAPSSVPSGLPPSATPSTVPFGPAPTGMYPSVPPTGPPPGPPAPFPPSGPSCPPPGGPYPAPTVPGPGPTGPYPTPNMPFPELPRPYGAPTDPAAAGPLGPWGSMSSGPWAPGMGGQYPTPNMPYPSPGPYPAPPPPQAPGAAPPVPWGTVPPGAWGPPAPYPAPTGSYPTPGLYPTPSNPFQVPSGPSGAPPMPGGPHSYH", "UniProt Q8NE22": "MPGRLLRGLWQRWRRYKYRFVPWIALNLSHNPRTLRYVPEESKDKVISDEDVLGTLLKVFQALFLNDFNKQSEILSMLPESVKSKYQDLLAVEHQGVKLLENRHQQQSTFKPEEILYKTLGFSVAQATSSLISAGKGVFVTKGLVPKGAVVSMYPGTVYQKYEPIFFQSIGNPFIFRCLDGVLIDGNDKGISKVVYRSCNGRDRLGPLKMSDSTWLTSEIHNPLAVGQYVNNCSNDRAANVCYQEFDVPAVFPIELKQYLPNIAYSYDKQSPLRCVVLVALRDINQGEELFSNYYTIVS", "UniProt Q8TB61": "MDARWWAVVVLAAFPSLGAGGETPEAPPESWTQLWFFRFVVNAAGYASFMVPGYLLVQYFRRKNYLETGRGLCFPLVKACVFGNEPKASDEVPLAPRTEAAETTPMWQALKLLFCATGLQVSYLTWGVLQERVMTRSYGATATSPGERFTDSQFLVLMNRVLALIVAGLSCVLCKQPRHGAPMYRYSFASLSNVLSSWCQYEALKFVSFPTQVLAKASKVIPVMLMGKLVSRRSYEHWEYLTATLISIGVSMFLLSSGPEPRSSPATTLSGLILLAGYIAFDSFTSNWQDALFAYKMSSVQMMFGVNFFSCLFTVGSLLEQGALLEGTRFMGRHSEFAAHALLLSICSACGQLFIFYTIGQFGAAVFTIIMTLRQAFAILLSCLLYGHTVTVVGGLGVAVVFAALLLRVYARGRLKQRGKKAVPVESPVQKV", "UniProt Q8TB45, whole entry": "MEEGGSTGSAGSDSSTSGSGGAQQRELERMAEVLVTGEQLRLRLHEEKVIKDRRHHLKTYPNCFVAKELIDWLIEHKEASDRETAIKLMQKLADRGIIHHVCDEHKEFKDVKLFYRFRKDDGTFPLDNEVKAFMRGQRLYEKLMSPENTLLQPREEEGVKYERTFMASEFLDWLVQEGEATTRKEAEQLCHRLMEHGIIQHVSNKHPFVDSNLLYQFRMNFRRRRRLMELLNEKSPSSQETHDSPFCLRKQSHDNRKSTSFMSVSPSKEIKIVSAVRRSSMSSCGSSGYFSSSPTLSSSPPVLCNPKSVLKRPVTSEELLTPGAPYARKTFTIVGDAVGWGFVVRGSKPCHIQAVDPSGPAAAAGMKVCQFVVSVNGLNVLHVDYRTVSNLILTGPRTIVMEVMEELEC"}, "source": "the supplement of paper PMC12819154", "about": "“High-throughput peptide-centric local stability assay extends protein–ligand identification to membrane proteins, tissues and bacteria” (Nature Structural & Molecular Biology, 2025)", "note": "The other results are listed elsewhere or left out. Small differences around the control level are noise.", "data": [{"compound": "CN[C@@H]1C[C@H]2O[C@@](C)([C@@H]1OC)n1c3ccccc3c3c4c(c5c6ccccc6n2c5c31)C(=O)NC4 [staurosporine]", "experiment": "log2 fold change of tryptic peptide abundance, ligand vs vehicle (limited proteolysis) (log2 ratio); higher = more trypsin-susceptible (destabilized)", "conditions": "ligand concentration: 20 uM; sample: K562 cleared lysate; digestion: 4 min, 22 C (HT-PELSA RT4min, Orbitrap Astral)", "values": [{"target": "FLCN (peptide sequence: QVLGAPSFR, peptide start residue: 354) (UniProt Q8NFG4)", "log2 fold change": 0.254}, {"target": "LINS1 (peptide sequence: HQPISVGVAPIAVAPVCLK, peptide start residue: 59) (UniProt Q8NG48)", "log2 fold change": 0.6}, {"target": "RYBP (peptide sequence: CSICDVR, peptide start residue: 41) (UniProt Q8N488)", "log2 fold change": 0.147}, {"target": "NATD1 (peptide sequence: IVDLQHTEVPDAYR, peptide start residue: 52) (UniProt Q8N6N6)", "log2 fold change": -0.237}, {"target": "UniProt Q8NI60 (peptide sequence: AAILGDTIMVAK, peptide start residue: 2)", "log2 fold change": 0.425}, {"target": "UniProt Q8NCA9 (peptide sequence: GFTQSSVLSGHAR, peptide start residue: 232)", "log2 fold change": -0.122}, {"target": "UniProt Q8NHY6 (peptide sequence: KVMLENYR, peptide start residue: 62)", "log2 fold change": 0.206}, {"target": "SUMF2 (peptide sequence: EATVKPFAIDIFPVTNKDFR, peptide start residue: 56) (UniProt Q8NBJ7)", "log2 fold change": -0.262}, {"target": "UniProt Q8N5L8 (peptide sequence: AVSCAEIVKR, peptide start residue: 67)", "log2 fold change": -0.712}, {"target": "GOLGA5 (peptide sequence: VDQGAATALSR, peptide start residue: 18) (UniProt Q8TBA6)", "log2 fold change": -0.449}, {"target": "GADD45GIP1 (peptide sequence: AAALAAAVAQDPAASGAPSS, peptide start residue: 203) (UniProt Q8TAE8)", "log2 fold change": -0.251}, {"target": "UniProt Q8ND90 (peptide sequence: LEQVIAGANHSGAIRR, peptide start residue: 291)", "log2 fold change": -0.584}, {"target": "OTUD6B (peptide sequence: QIPSDGHCMYK, peptide start residue: 151) (UniProt Q8N6M0)", "log2 fold change": 0.107}, {"target": "RP9 (peptide sequence: SSRPGREDVGAAGAR, peptide start residue: 2) (UniProt Q8TA86)", "log2 fold change": -0.755}, {"target": "C19orf47 (peptide sequence: LGAAALVPEAQDSQVTSTK, peptide start residue: 356) (UniProt Q8N9M1)", "log2 fold change": 0.567}, {"target": "SNIP1 (peptide sequence: SPHHSTVK, peptide start residue: 99) (UniProt Q8TAD8)", "log2 fold change": 1.29}, {"target": "NAV1 (peptide sequence: SLTNLSFLTDSEKK, peptide start residue: 90) (UniProt Q8NEY1)", "log2 fold change": 0.434}, {"target": "ADGB (peptide sequence: EILPEFK, peptide start residue: 293) (UniProt Q8N7X0)", "log2 fold change": 0.0309}, {"target": "SIRT6 (peptide sequence: GPHGVWTMEER, peptide start residue: 66) (UniProt Q8N6T7)", "log2 fold change": 0.554}, {"target": "DOCK8 (peptide sequence: KNQGSPEICGFKK, peptide start residue: 135) (UniProt Q8NF50)", "log2 fold change": 0.755}, {"target": "UniProt Q8TAC2 (peptide sequence: APEALGDEDGVR, peptide start residue: 145)", "log2 fold change": 0.192}, {"target": "MEIOB (peptide sequence: NCMTATVISK, peptide start residue: 243) (UniProt Q8N635)", "log2 fold change": 0.459}, {"target": "ANKLE1 (peptide sequence: HLPVSTVSDLELLK, peptide start residue: 355) (UniProt Q8NAG6)", "log2 fold change": 0.227}, {"target": "CCDC71L (peptide sequence: DVYGYSSCR, peptide start residue: 97) (UniProt Q8N9Z2)", "log2 fold change": 0.296}, {"target": "UniProt Q8N8J7 (peptide sequence: GGDGGERDEDGDALAER, peptide start residue: 10)", "log2 fold change": 0.4}, {"target": "PPP1R14C (peptide sequence: VFFQSPR, peptide start residue: 21) (UniProt Q8TAE6)", "log2 fold change": 0.0153}, {"target": "UniProt Q8N9B4 (peptide sequence: LLEELQK, peptide start residue: 690)", "log2 fold change": -0.0731}, {"target": "MAPK1IP1L (peptide sequence: SDEFSLADALPEHSPAK, peptide start residue: 2) (UniProt Q8NDC0)", "log2 fold change": -0.0954}, {"target": "UniProt Q8N7X4 (peptide sequence: PYFPQILNR, peptide start residue: 231)", "log2 fold change": -0.181}, {"target": "NUP35 (peptide sequence: SPLLAGGSPPQPVVPAHK, peptide start residue: 66) (UniProt Q8NFH5)", "log2 fold change": 0.235}, {"target": "UniProt Q8NBJ5 (peptide sequence: ALQAQEIECR, peptide start residue: 361)", "log2 fold change": 0.573}, {"target": "UniProt Q8NE22 (peptide sequence: FVPWIALNLSHNPR, peptide start residue: 20)", "log2 fold change": 0.527}, {"target": "PHC3 (peptide sequence: EDHLMSAMNIK, peptide start residue: 831) (UniProt Q8NDX5)", "log2 fold change": 0.11}, {"target": "PPP1R35 (peptide sequence: MMGCGESELK, peptide start residue: 2) (UniProt Q8TAP8)", "log2 fold change": 0.623}, {"target": "SLC35B2 (peptide sequence: ASDEVPLAPR, peptide start residue: 88) (UniProt Q8TB61)", "log2 fold change": 0.0969}, {"target": "KLHL36 (peptide sequence: QVLENIHFPLIPK, peptide start residue: 230) (UniProt Q8N4N3)", "log2 fold change": -0.111}, {"target": "UniProt Q8TB45 (peptide sequence: EIKIVSAVR, peptide start residue: 269)", "log2 fold change": -0.155}]}]}
